PMC9727301
These are yes or no findings as the source states them, for the method shown. For some of these results: Binding seen in cells or lysates may run through a third protein. Some results given as binding are weak or reduced against the parent protein; the word gives no strength. Tags and fused reporters may be left off the sequences shown. One block for each binder: values may come before it.

How the values were obtained:
[1] = molecular target: T1, HD2A (Arabidopsis histone deacetylase 2A), yeast two-hybrid fusion (Arabidopsis thaliana) (UniProt Q9FVE6); experiment: two-hybrid; Matchmaker Gold system, Y2HGold strain co-transformed with pGBKT7 bait and pGADT7 prey; growth on SD-Leu/Trp/Ade/His (QDO) and QDO with X-alpha-Gal and Aureobasidin-A (QDO/X/A); both orientations
T1 sequence: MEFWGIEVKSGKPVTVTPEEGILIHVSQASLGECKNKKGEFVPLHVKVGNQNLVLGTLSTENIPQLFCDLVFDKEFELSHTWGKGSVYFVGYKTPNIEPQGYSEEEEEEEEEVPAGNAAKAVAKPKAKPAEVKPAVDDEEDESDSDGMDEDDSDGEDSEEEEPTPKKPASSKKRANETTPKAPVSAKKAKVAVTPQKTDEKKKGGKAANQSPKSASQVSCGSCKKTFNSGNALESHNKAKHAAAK

[2] = molecular target: T2, HD2A (Arabidopsis histone deacetylase 2A), BiFC fusion (Arabidopsis thaliana) (UniProt Q9FVE6); experiment: split reporter; BiFC with YN and YC fusions co-infiltrated by Agrobacterium GV3101 into Nicotiana benthamiana leaf epidermis; YFP signal by confocal microscopy after 48-72 hours; both combinations
T2 sequence: T1 sequence

[3] = molecular target: T3, HD2C (Arabidopsis histone deacetylase 2C), yeast two-hybrid fusion (Arabidopsis thaliana) (UniProt Q9LZR5); experiment: two-hybrid; Matchmaker Gold system, Y2HGold strain co-transformed with pGBKT7 bait and pGADT7 prey; growth on SD-Leu/Trp/Ade/His (QDO) and QDO with X-alpha-Gal and Aureobasidin-A (QDO/X/A); both orientations
T3 sequence: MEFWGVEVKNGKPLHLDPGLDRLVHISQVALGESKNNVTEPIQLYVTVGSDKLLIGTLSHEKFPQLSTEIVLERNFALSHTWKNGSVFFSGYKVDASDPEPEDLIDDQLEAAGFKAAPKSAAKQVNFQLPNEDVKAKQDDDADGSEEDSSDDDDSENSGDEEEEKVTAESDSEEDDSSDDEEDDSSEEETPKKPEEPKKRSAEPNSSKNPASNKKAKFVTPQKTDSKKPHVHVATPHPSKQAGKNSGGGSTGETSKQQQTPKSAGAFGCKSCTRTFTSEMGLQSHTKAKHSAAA

[4] = molecular target: T4, HD2C (Arabidopsis histone deacetylase 2C), BiFC fusion (Arabidopsis thaliana) (UniProt Q9LZR5); experiment: split reporter; BiFC with YN and YC fusions co-infiltrated by Agrobacterium GV3101 into Nicotiana benthamiana leaf epidermis; YFP signal by confocal microscopy after 48-72 hours; both combinations
T4 sequence: T3 sequence

binding [1]: binds
B1: HD2C (Arabidopsis histone deacetylase 2C), yeast two-hybrid fusion (protein, UniProt Q9LZR5 1-294)
chain: T3 sequence

binding [2]: binds
B2: HD2C (Arabidopsis histone deacetylase 2C), BiFC fusion (protein, UniProt Q9LZR5 1-294)
chain: T3 sequence

binding [3]: binds
B3: HD2A (Arabidopsis histone deacetylase 2A), yeast two-hybrid fusion (protein, UniProt Q9FVE6 1-245)
chain: T1 sequence

binding [4]: binds
B4: HD2A (Arabidopsis histone deacetylase 2A), BiFC fusion (protein, UniProt Q9FVE6 1-245)
chain: T1 sequence
